Source: patent publication US7348155B2, “Method for identifying compounds for treating aging processes in the coronary circulatory system” (Sanofi-Aventis Deutschland GmbH, priority 2001, dated 2008)
Values joined by “and” are separate entries in the source; they are usually repeats but may differ in a detail not shown here. Equal entries are not always repeated. At least one compound was matched to its structure with a doubt left. Marks after values point to notes of the source that are not given here.

Tests used:
Assay type in all cases: cell-based
[1] = test system: human cardiac fibroblasts from healthy donor hearts; experiment: Procollagen type I C-peptide ELISA (collagen synthesis) in fibroblasts from control (healthy donor) hearts; settings: 10^−7 mol/l
Method: (§1) Human cardiac fibroblasts were isolated from seven explanted human hearts in the terminal stage of cardiac insufficiency due to dilated cardiomyopathy. Four cell preparations were also made from healthy donor hearts. The fibroblasts were isolated in sterile 10 cm Petri dishes and cultured as previously described. After about 12 weeks of culturing, the cells reached the second passage with a confluence of approx. 80%. At this stage, the serum was withdrawn for 48 hours and the cells were subsequently stimulated for various intervals of time (between 6 and 24 hours) with UII, Ang II, TNFalpha, TGFβ, UII+TNFa, (in each case 10^−7 mol/l), or buffer (control). The determinations were carried out in duplicate or in triplicate. After the stimulation, the cells were washed, removed from the Petri dishes with 1 ml of PBS and centrifuged down in Eppendorf tubes (100 rpm, 5 min, 4° C.). The supernatant was discarded. 100 ul of lysis buffer (Nonidet P40, 0.5%, SDS 0.5%) were added to about 50 ul of cells and the mixture was incubated on ice for a further 20 minutes. The lysate was centrifuged once again (20 minutes, 1400 rpm, 4° C.) and the supernatant was used for the subsequent experiments. Protein was determined by means of the BCA (bicinchoninic acid) assay. The homogenates were diluted down to a protein concentration of 2 ug/ul.
(§2) Procollagen type I C-peptide in the fibroblasts from all the hearts was determined on a 96-well microtiter plate using a commercially obtainable solid-phase ELISA assay (TaKaRa Biomedicals, Shuzo Co, Ltd.). The assay was carried out in accordance with the manufacturer's instructions. […] The values for the procollagen type I C-peptide were determined using a standard curve of 10-640 ng/ml. The standards were provided by the manufacturer. The absorption values for the stimulations obtained with the controls (buffer) were set at 100%. The absorption values for the stimulated cells were related to the control values obtained for the same heart. In each case, the mean values from duplicate or triplicate determinations were used for the calculations. A bilateral, unpaired t test was used for statistically evaluating the comparison of the stimulation responses in control cells and in cardiac insufficiency cells.

[2] = test system: human cardiac fibroblasts from explanted hearts in the terminal stage of cardiac insufficiency; experiment: Procollagen type I C-peptide ELISA (collagen synthesis) in fibroblasts from hearts in the terminal stage of cardiac insufficiency (EFH); settings: 10^−7 mol/l
Method: as §1, with “At this stage, the serum was withdrawn for 48 hours and the cells were subsequently stimulated for various intervals of time (between 6 and 24 hours) with UII, Ang II, TNFalpha, TGFβ, UII+TNFa, (in each case 10^−7 mol/l), or buffer (control).” left out
as §2

[3] = test system: fibroblasts from human hearts; experiment: Induction of mRNAs (collagen 1, MMP2, TGFbeta1, CTGF) in heart fibroblasts, real-time PCR; settings: 1 μM, 6 hours stimulation, fibroblasts from three human hearts, GAPDH mRNA as standard reference; for MMP 2 mRNA: control 0.43 +/− 0.2; for CTGF mRNA: control 0.45 +/− 0.27; for Col 1 mRNA: control 0.56 +/− 0.1; for TGFbeta1 mRNA: control 0.60 +/− 0.09
Method: Fibroblasts were isolated from human hearts as described in Cell and Tissue Research 286, 145-153 (1996). 96-98% of the resulting cell culture consisted of fibroblasts.
For the purpose of implementing this procedure, heart tissue was cut into small pieces and incubated three times, at 37° C. for 20 minutes, in KHB (Krebs Henseleit buffer) containing 2 mg of collagenase/ml and 2 mg of dispase/ml. The homogenates were combined and then centrifuged. The sediments were taken up in 10 ml of KHB. The cells were added, in portions of in each case 2 to 3 ml, to uncoated plastic containers. The volume was made up to 10 ml with DMEM (Dulbecco's modification of Eagle's medium) containing […] and 10% FCS (fetal calf serum). After having been incubated at 37° C. for 1 hour, the cells were washed twice with PBS (phosphate-buffered saline) and subsequently cultured, at 37° C. and 5% CO2, for approx. 4-8 weeks until 90% confluence had been reached. There then followed two further passages of in each case 4 weeks' duration. The cells employed in the present experiments were used after the second passage and at 70% to 90% confluence (approx. 3 months after isolation).
The reagents for implementing the cell culture techniques were obtained from Gibco BRL Life Technologies. The cells were first of all kept, at 37° C., in serum-free DMEM containing 4000 mg of glucose/l, 2 mM L-glutamine, 100 μg/0.1 mg of penicillin/streptomycin/ml and 0.1% BSA (bovine serum albumin) before angiotensin II or urotensin II was added, […] RNA was then prepared from the cells after 6 hours.
The RNA was isolated by means of standard methods using guanidinium chloride.
Reverse transcriptase (10 units/ng of RNA) was used to transcribe 500 ng of the RNA from each sample into DNA. For degrading the DNA, the entire volume, containing approx. 8-10 μg of RNA, was incubated with DNase I.
The RNAs were quantified using a LightCycler and a Fast Start SYBR Green RT-PCR kit supplied by Roche Molecular Biochemicals. Corresponding kits from other companies such as Applied Biosystems, Bio-Rad or Stratagene are also suitable for the same purpose. The primers corresponding to SEQ ID No. 1 and 2 were used as primers for Col I, while the primers corresponding to SEQ ID No. 3 and 4 were used as primers for MMP2, the primers corresponding to SEQ ID No. 5 and 6 were used as primers for GAPDH, as the control, the primers corresponding to SEQ ID No. 7 and 8 were used as primers for TGFbeta, and the primers corresponding to SEQ ID No. 9 and 10 were used as primers for CTGF. The reaction was first of all kept constant at 95° C. for 10 min. There then followed 40 cycles, with each cycle comprising an incubation for 10 sec at 95° C., 5 sec at 60° C. and 12 sec at 72° C. A melting curve was used to confirm the specificity of the reaction. The quantities were equalized using GAPDH mRNA as the control.
Fibroblasts were isolated from three human hearts and used in the first passage. The cells were cultured up to approx. 80% confluence, kept for a further 24 hours without serum and stimulated for 6 hours, in each case in duplicate assays, with 1 μM urotensin II, 1 μM angiotensin II or buffer substances as controls. The mRNAs (collagen 1, matrix metalloproteinase 2, TGFbeta1 and CTGF) were quantified by real-time PCR using a LightCycler™. The GAPDH (glyceraldehyde-3-phosphate dehydrogenase) mRNA was used as the standard reference. Real-time PCR (polymerase chain reaction in real time) makes it possible to determine specific nucleic acids quantitatively. The technique is based on using fluorescent dyes in combination with the polymerase chain reaction of reverse-transcribed RNA. Different suppliers of assay kits now exist. For example, the system can be obtained commercially from Applied Biosystems, Bio-Rad, Cepheid, Carbett Research, Roche Molecular Biochemicals or Stratagene.

CC(C)[C@H](NC(=O)[C@@H]1CSSC[C@H](NC(=O)[C@H](CC(=O)O)NC(=O)[C@@H]2CCCN2C(=O)[C@@H](NC(=O)[C@@H](N)CCC(=O)O)[C@@H](C)O)C(=O)N[C@@H](Cc2ccccc2)C(=O)N[C@@H](Cc2c[nH]c3ccccc23)C(=O)N[C@@H](CCCCN)C(=O)N[C@@H](Cc2ccc(O)cc2)C(=O)N1)C(=O)O [UII, urotensin II]
Collagen synthesis (procollagen type I C-peptide, Absorption, in % of the controls) ([1]; control heart No. 3, 12 h): 80 % of the controls | Collagen synthesis (procollagen type I C-peptide, Absorption, in % of the controls) ([1]; control heart No. 5, 6 h): 106 % of the controls | Collagen synthesis (procollagen type I C-peptide, Absorption, in % of the controls) ([1]; control heart No. 6, 6 h): 104 % of the controls | Collagen synthesis (procollagen type I C-peptide, Absorption, in % of the controls), MV ([1]; mean value over control (donor) hearts): 98 % of the controls | Collagen synthesis (procollagen type I C-peptide, Absorption, in % of the controls) ([2]; EFH heart No. 1, 24 h): 198 % of the controls | Collagen synthesis (procollagen type I C-peptide, Absorption, in % of the controls) ([2]; EFH heart No. 4, 24 h): 458 % of the controls | Collagen synthesis (procollagen type I C-peptide, Absorption, in % of the controls) ([2]; EFH heart No. 10, 5 h): 102 % of the controls | Collagen synthesis (procollagen type I C-peptide, Absorption, in % of the controls) ([2]; EFH heart No. 11, 5 h): 243 % of the controls | Collagen synthesis (procollagen type I C-peptide, Absorption, in % of the controls) ([2]; EFH heart No. 12, 12 h): 117 % of the controls | Collagen synthesis (procollagen type I C-peptide, Absorption, in % of the controls) ([2]; EFH heart No. 13, 12 h): 165 % of the controls | Collagen synthesis (procollagen type I C-peptide, Absorption, in % of the controls) ([2]; EFH heart No. 14, 12 h): 226 % of the controls | Collagen synthesis (procollagen type I C-peptide, Absorption, in % of the controls), MV ([2]; mean value over EFH hearts (SEM as spread)): 173+/−42 % of the controls and 173 % of the controls | MMP 2 mRNA [3]: 0.65 +/− 0.3* | MMP 2 mRNA ([3]; listed as urotensin II): significant increases | CTGF mRNA [3]: 0.88*/−0.2* | CTGF mRNA ([3]; listed as urotensin II): significant increases | Col 1 mRNA [3]: 0.92 +/− 0.3* | Col 1 mRNA ([3]; listed as urotensin II): significant increases | TGFbeta1 mRNA [3]: 0.81 +/− 0.1* | TGFbeta1 mRNA ([3]; listed as urotensin II): significant increases
